Measured values from paper PMC8115569.
No constants are given. Whether binding was seen depends on the method and setting. Binding seen in cells or lysates may run through a third protein. Some entries that bind do so weakly or less than the wild type.

By UniProt entry, the sequences of proteins in these tests, tags left out. Residues count along the entry.
UniProt P05106, residues 27-788: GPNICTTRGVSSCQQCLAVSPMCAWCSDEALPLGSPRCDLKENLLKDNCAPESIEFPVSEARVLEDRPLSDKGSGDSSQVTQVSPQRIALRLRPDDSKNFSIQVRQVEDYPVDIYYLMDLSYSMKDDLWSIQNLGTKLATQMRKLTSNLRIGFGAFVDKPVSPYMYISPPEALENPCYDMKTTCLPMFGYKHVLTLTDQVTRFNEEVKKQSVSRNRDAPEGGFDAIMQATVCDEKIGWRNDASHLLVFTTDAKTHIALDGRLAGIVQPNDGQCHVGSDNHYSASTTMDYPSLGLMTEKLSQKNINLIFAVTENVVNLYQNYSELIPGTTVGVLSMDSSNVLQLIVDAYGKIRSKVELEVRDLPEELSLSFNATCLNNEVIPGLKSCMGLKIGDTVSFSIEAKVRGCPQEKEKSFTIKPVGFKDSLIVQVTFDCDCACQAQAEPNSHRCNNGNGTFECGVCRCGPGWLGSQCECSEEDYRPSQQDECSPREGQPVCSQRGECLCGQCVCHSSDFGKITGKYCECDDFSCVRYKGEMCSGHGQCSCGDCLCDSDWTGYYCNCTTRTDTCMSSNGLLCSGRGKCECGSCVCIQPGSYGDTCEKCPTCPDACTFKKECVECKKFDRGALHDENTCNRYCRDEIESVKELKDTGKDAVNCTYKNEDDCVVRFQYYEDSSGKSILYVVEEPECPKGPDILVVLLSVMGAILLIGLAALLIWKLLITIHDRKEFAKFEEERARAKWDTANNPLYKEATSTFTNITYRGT
UniProt P49023: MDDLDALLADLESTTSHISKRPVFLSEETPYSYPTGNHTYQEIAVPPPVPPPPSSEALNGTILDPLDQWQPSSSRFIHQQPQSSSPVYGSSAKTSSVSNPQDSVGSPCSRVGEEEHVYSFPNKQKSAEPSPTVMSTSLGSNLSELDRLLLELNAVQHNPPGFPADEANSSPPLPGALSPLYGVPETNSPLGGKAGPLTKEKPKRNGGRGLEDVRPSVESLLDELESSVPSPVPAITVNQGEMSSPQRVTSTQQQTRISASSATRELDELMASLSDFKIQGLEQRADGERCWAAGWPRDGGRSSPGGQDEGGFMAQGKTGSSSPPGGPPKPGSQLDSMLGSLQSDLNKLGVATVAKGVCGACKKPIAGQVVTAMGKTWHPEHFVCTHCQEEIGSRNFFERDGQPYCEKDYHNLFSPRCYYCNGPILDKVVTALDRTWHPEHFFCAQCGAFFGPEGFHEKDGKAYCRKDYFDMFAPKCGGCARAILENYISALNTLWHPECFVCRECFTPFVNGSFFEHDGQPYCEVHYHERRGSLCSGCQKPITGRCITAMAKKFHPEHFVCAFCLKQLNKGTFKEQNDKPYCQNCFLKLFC
UniProt Q96QZ7: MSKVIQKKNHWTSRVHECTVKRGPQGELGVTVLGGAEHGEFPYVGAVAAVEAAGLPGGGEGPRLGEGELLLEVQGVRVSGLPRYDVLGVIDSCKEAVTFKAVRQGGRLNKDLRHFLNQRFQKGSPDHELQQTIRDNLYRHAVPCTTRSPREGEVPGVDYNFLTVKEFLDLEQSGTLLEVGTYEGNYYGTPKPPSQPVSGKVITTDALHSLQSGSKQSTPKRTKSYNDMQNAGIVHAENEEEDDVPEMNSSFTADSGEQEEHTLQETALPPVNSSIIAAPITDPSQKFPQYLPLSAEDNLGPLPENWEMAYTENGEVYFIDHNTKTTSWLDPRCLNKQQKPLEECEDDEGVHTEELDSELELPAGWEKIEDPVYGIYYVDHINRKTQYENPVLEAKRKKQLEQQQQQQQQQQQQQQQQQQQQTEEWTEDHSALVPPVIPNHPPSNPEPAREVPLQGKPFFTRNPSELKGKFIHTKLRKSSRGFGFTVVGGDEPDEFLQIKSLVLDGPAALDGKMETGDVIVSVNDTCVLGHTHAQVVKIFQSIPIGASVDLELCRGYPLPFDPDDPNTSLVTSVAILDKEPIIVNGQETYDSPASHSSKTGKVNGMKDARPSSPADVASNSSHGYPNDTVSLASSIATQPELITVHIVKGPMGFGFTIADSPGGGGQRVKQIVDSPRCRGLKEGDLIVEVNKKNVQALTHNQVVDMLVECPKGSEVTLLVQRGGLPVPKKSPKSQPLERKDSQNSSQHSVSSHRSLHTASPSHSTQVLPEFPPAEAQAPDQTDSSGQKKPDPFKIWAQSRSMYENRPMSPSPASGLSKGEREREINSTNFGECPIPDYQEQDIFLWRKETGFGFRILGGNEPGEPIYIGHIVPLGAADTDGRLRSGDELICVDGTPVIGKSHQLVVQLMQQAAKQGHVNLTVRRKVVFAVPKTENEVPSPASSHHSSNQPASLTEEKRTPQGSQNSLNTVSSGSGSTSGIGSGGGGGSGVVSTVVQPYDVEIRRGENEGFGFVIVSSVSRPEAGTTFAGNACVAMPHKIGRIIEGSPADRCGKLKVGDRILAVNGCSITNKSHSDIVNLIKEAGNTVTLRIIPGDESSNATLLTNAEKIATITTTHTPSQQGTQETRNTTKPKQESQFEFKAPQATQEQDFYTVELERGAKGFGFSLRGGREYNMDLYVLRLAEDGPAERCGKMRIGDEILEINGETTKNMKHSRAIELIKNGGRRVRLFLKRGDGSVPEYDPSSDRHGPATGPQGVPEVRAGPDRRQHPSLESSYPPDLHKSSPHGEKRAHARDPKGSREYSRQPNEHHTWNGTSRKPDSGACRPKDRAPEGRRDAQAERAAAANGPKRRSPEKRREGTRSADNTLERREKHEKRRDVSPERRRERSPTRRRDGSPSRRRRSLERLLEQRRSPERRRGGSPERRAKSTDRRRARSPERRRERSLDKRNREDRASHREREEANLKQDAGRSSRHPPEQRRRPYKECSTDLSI
UniProt Q9Y490: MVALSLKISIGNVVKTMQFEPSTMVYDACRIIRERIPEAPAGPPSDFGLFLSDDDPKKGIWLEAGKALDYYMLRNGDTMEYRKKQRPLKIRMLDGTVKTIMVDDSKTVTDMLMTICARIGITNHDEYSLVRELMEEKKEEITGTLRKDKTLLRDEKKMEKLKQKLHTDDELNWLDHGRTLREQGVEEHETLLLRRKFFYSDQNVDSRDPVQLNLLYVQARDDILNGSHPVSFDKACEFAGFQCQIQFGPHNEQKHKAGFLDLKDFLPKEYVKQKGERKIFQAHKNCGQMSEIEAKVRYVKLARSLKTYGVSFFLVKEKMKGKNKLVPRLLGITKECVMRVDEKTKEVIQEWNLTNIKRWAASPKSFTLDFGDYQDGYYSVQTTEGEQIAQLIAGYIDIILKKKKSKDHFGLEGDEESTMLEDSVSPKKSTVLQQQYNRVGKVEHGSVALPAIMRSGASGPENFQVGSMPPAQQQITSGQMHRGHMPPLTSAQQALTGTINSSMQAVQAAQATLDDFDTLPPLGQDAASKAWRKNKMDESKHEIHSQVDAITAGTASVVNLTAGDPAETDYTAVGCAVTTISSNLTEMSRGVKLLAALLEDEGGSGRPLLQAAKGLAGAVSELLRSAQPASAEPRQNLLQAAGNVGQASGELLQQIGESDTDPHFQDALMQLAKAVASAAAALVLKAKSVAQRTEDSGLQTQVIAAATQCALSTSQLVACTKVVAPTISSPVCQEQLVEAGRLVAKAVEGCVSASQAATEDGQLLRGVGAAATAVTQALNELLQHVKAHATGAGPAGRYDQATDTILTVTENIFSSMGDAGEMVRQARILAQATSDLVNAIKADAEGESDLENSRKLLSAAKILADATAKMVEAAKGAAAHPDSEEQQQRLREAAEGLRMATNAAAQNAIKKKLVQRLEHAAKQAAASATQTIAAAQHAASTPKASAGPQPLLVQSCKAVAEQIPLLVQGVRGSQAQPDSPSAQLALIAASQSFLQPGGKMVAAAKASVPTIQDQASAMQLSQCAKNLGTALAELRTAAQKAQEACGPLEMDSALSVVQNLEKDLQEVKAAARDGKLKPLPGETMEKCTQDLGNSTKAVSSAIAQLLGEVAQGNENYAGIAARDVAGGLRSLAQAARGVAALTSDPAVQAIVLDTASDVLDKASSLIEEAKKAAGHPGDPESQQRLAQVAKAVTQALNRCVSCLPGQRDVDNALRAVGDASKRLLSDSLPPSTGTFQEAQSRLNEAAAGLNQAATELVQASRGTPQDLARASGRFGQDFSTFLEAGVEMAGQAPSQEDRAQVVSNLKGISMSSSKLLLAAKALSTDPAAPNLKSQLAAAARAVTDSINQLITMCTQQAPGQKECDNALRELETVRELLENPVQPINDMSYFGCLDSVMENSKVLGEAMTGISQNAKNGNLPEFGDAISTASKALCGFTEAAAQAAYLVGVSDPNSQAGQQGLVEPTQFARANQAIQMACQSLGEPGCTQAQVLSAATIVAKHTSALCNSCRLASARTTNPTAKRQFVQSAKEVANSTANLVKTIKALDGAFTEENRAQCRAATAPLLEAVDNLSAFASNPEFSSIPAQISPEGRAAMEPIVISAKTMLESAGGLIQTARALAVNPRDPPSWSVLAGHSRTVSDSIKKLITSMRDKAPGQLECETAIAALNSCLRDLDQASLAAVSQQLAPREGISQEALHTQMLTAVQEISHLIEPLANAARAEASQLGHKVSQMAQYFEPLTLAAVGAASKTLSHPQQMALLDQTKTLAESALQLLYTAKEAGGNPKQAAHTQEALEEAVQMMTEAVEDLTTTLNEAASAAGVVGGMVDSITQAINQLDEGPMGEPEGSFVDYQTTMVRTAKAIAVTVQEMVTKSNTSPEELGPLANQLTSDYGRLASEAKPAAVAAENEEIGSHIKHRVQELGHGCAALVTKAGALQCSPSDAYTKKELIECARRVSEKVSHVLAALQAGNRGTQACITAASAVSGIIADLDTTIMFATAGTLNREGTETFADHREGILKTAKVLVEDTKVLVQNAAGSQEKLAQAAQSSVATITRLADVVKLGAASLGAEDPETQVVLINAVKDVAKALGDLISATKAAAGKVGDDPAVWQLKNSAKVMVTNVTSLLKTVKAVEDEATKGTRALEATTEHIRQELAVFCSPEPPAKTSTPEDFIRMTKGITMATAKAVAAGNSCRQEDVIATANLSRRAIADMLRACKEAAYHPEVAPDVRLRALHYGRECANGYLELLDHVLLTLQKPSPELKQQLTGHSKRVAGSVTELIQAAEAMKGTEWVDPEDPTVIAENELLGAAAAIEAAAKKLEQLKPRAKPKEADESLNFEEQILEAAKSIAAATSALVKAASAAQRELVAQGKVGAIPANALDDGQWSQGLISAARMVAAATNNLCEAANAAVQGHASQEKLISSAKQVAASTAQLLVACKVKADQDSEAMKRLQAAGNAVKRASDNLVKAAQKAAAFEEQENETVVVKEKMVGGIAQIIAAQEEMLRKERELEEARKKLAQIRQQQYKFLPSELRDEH

Columns and labels:
[1] = target: β3-integrin (human (endogenous in HUVEC)) (UniProt P05106); test: co-IP; lysates of adherent HUVEC in NP-40 lysis buffer with protease and phosphatase inhibitors; primary antibody (MAGI1, talin 1, β3-integrin or isotype control IgG) overnight at 4°C, protein G magnetic beads 3 h at 4°C; western blot for talin 1 or MAGI1
[2] = target: paxillin (human (endogenous in 293 T)) (UniProt P49023); test: co-IP; lysates of 293 T cells in NP-40 lysis buffer with protease and phosphatase inhibitors; primary antibody overnight at 4°C, protein G magnetic beads 3 h at 4°C; western blot
[3] = target: T1, phosphatase PTP-PEST (human (endogenous in 293 T)) (UniProt Q05209); test: as above
T1 sequence: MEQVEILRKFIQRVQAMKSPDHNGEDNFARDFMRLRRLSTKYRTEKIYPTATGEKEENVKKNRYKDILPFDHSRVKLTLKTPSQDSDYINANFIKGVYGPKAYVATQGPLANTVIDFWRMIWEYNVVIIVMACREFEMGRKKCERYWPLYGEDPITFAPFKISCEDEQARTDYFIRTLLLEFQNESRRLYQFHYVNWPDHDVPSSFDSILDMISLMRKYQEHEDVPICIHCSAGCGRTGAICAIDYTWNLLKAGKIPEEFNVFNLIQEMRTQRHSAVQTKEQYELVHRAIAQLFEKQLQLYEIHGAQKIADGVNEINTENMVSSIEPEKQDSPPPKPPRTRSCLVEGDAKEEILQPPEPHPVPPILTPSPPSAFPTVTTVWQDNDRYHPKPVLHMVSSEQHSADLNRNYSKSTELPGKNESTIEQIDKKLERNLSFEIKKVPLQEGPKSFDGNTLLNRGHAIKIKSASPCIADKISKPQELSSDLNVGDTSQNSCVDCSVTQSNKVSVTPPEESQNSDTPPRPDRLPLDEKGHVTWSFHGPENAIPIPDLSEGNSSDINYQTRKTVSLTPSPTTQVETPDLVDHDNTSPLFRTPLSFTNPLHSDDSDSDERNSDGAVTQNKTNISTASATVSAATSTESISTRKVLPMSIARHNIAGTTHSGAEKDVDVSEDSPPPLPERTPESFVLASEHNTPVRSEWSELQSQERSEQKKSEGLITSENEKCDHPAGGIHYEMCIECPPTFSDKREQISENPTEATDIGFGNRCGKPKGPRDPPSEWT

[4] = target: MAGI1 (Membrane associated guanylate kinase, WW and PDZ domain containing 1) (human (endogenous in HUVEC)) (UniProt Q96QZ7); test: co-IP; lysates of adherent HUVEC in NP-40 lysis buffer with protease and phosphatase inhibitors; primary antibody (MAGI1, talin 1, β3-integrin or isotype control IgG) overnight at 4°C, protein G magnetic beads 3 h at 4°C; western blot for talin 1 or MAGI1

Row | binding [1] | binding [2] | binding [3] | binding [4] | Substance
1 | binds | binds | binds | – | MAGI1 (Membrane associated guanylate kinase, WW and PDZ domain containing 1) (from UniProt Q96QZ7 1-1491)
2 | – | – | – | binds | talin 1 (from UniProt Q9Y490 1-2541)
